This passage reports binding signal results from publication PMC7819943, “Rice protein-binding microarrays: a tool to detect cis-acting elements near promoter regions in rice”.

The list shows a part of the results.

This experiment has as its target T1, OsSMF1 (Oryza sativa, UniProt Q6ZLB0 1-436).
T1 sequence: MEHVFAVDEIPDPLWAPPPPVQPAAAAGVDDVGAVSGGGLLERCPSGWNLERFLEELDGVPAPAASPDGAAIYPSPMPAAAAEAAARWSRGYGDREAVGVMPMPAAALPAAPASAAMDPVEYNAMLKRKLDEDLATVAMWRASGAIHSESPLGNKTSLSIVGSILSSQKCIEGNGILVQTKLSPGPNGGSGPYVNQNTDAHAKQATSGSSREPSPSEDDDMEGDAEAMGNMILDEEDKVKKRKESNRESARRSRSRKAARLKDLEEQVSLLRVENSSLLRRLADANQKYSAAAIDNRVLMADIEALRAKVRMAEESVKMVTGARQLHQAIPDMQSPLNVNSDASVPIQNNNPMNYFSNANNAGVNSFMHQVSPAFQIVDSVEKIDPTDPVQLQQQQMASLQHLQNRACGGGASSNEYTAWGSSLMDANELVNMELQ
The experiment can be described thus: protein-binding microarray (RPBM); PBS, 2% BSA, 51.3 ng/ul salmon testes DNA, 50 uM zinc acetate, 200 nM TF, 25 C, 1 h; high values mean tight binding. Conditions: protein: recombinant; tags: N-terminal polyhistidine and DsRed monomer fusion (pET32a); chain copies: 2; label: CyDye5-dUTP incorporated in the synthesized complementary strand; 3' TTTTT single-stranded linker to array surface; dsDNA, one strand shown. Put shortly:
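Transcription factors were made in E. coli BL21-CodonPlus as N-terminal fusions to a polyhistidine tag and DsRed, then purified on Ni–NTA. After primer extension with Cy5-dUTP and blocking with 2% BSA, a custom Agilent array was exposed for 1 h at 25 °C to 200 nM protein in PBS, 2% BSA, salmon testes DNA and 50 µM zinc acetate. Washed arrays were scanned on an Axon 4000B, and the binding signal is per-feature fluorescence intensity in arbitrary units.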
In the case of “AAATACTGTAGTAAGTATACGTGTTATGCTCACTTTTGTACGGAGTCACCTAGTGCAG”, the binding signal is 4020 fluorescence intensity (a.u.).
For “CACTCTTTATTTTATTATGACTTGATTCGTCATCAAATGTCGGAGTCACCTAGTGCAG” the value was 3870 fluorescence intensity (a.u.); for “TTACACCTTGTCACCGAACGCGATTTGTTTGTTTCGCCCCCGGAGTCACCTAGTGCAG”, 4710 fluorescence intensity (a.u.).
As for “GACCATTTGTCACACTGGAAAGTCCGCGTTTCATTTCCTGCGGAGTCACCTAGTGCAG”, the binding signal is 25800 fluorescence intensity (a.u.).
For “ACATCAAGAGACACATCAGCCCACTGCTAGACTGCTAATTCGGAGTCACCTAGTGCAG”, the binding signal is 3400 fluorescence intensity (a.u.).
“ATCCCAAGCTGGCCCTCCACGTCGGCCACGTGTGGAGGTGCGGAGTCACCTAGTGCAG”: the binding signal is 15300 fluorescence intensity (a.u.).
For the sequence “TCTCCTCGCTTCCCATTCCTGGGCTCTGACTCGGACGCCCCGGAGTCACCTAGTGCAG”, the binding signal is 3960 fluorescence intensity (a.u.).
Regarding “ATATACGATTCGTAATTTGATATGACTAATTAACTACACCCGGAGTCACCTAGTGCAG”, the binding signal was 3260 fluorescence intensity (a.u.).
For “CAACGTCCGGATACGTTTCTCATACGTCAGCCAAGCGCATCGGAGTCACCTAGTGCAG”, the binding signal is 9610 fluorescence intensity (a.u.).
In the case of “TATGCTCGGTGTGTTTATCATTGGTGTGATTGTGTATAGTCGGAGTCACCTAGTGCAG”, the binding signal was 26800 fluorescence intensity (a.u.).
The figure for “AGCATTGCAACGACGACGTCATCGAGTCATCGCTCGAGCTCGGAGTCACCTAGTGCAG” is 7670 fluorescence intensity (a.u.); for “CCTCCGCGCGGCCACGCCTACTCACAAAACCCATCCACGTCGGAGTCACCTAGTGCAG” it is 4670 fluorescence intensity (a.u.); for “TGAGCTTGTGATGGTGTCATGGTTATATTTTCGTGTTGCCCGGAGTCACCTAGTGCAG” it is 3980 fluorescence intensity (a.u.).
“CATGTAGAGTTGTAGACGTTACGCACAGTGACGCCATCTTCGGAGTCACCTAGTGCAG”: the binding signal was 3620 fluorescence intensity (a.u.).
In the case of “ACATTGCAATAGTGCAACCGTGGCATCGTTCTTTAGGTGGCGGAGTCACCTAGTGCAG”, the binding signal is 5790 fluorescence intensity (a.u.).
As for “TAATTGGGGTGATGTGGCTAATTCTCAAAGCAGTTTTATACGGAGTCACCTAGTGCAG”, the binding signal was 5820 fluorescence intensity (a.u.).
As to “GCAACAGCTATAATTCGTTGCTGACTATAGCCCACATGCCCGGAGTCACCTAGTGCAG”, the binding signal was 4450 fluorescence intensity (a.u.).
Take “GCTGCTCTGCTTCTGCTTGCCTGTGCTGTGCTGTGTGTGTCGGAGTCACCTAGTGCAG”: the binding signal is 3340 fluorescence intensity (a.u.).
On to “GGAAAAGAGAGTAGGGTGCTGACGTGGACACCCTGACGTGCGGAGTCACCTAGTGCAG”, for which the binding signal was 23500 fluorescence intensity (a.u.).
The figure for “GTCAAATCATGGCGTAATTGGGCTTAAAAGATTCGTCTCGCGGAGTCACCTAGTGCAG” is 35400 fluorescence intensity (a.u.); for “AGTGGCATCAAGTCAGCTACTGTTCTTGTCTGTGATTGATCGGAGTCACCTAGTGCAG” it is 3690 fluorescence intensity (a.u.).
Regarding “GGTATTAACGTATGATTAATTGAGTTTCAATTATTACAAACGGAGTCACCTAGTGCAG”, the binding signal is 25200 fluorescence intensity (a.u.).
On to “TTCAGCGTCATACAAGGTCAGACATGTCAATGTCATCCTCCGGAGTCACCTAGTGCAG”, for which the binding signal was 3820 fluorescence intensity (a.u.).
Turning to “GATTTGAACTCAGGGAACAACTCATCGTGCAACAACTTTGCGGAGTCACCTAGTGCAG”, the binding signal is 16400 fluorescence intensity (a.u.).
“GGCATTCTCTGTACTTTGGCTGTCACGCACGCACGCGTGGCGGAGTCACCTAGTGCAG”: the binding signal was 3250 fluorescence intensity (a.u.).
For the sequence “CCTTGCTGAGCTGGTCGGTGTCGTGTACCAAGAAACCCTCCGGAGTCACCTAGTGCAG”, the binding signal was 8150 fluorescence intensity (a.u.).
Consider “CGACGACGGATGCGACGATGGGTGACGGCGGAGTGGCGGCCGGAGTCACCTAGTGCAG”, for which the binding signal was 3390 fluorescence intensity (a.u.).
For “ATAAGACTTGATGACAACAACCATCACAGGGGTGCTTCTGCGGAGTCACCTAGTGCAG”, the binding signal is 3230 fluorescence intensity (a.u.).
Consider “CGGCTATCGATATATACATAGGTGGTGGATGCGTGCGTGCCGGAGTCACCTAGTGCAG”, for which the binding signal was 3640 fluorescence intensity (a.u.).
With “GTTGCAGAGCAGCTCGCGCCGCGCGCGTACACTCGCTTTGCGGAGTCACCTAGTGCAG”, the binding signal was 6780 fluorescence intensity (a.u.).
For “GTTAGGATATCCGGTGTTGGTTCATTATAGTCTGCACTTACGGAGTCACCTAGTGCAG” the value was 3390 fluorescence intensity (a.u.); for “GCTTGTATATACGTCAGCTGTCTGGGCCTTCCAATGGACGCGGAGTCACCTAGTGCAG”, 5820 fluorescence intensity (a.u.).
“CCTTACCCCTACCTTCCACCGCACTCTCAAACCCATCCGGCGGAGTCACCTAGTGCAG”: the binding signal was 3180 fluorescence intensity (a.u.).
“CTGTCCATTGATCTGTCCCTGGCAGCGACGTGACGTCCCACGGAGTCACCTAGTGCAG”: the binding signal was 4890 fluorescence intensity (a.u.).
The figure for “CTTCGTTTTAATCACGTCAACCAGCATTTTGGCTTTTCCACGGAGTCACCTAGTGCAG” is 3430 fluorescence intensity (a.u.); for “TGTAGCCAATTGGTTTCTATAAACAGAAAAGTGGTCGTCCCGGAGTCACCTAGTGCAG” it is 20700 fluorescence intensity (a.u.).
With “GGTAGAGGCCAGGCCATAGATCGAGATCGATCTGCAGGTGCGGAGTCACCTAGTGCAG”, the binding signal was 20500 fluorescence intensity (a.u.).
Regarding “ATGGGTTGCACATGACTAGTCCAGTTCTCGCTGTCAGCATCGGAGTCACCTAGTGCAG”, the binding signal is 4480 fluorescence intensity (a.u.).
The figure for “GGATCAGGACGCGTGGGAGTCAAAACCTGGTCTCCTCGGTCGGAGTCACCTAGTGCAG” is 3340 fluorescence intensity (a.u.).
Take “GAAATGCCAAGTGTGAGAAGATGACGCACCCAAATGCAACCGGAGTCACCTAGTGCAG”: the binding signal is 5640 fluorescence intensity (a.u.).
With “CGCGGCGGCGGCGGCGCGAAGGCACGTGGCACGGCGCCGCCGGAGTCACCTAGTGCAG”, the binding signal is 3420 fluorescence intensity (a.u.).
With “CTTCCATCATTATAGATACTCATGTCACGTGGACATCACGCGGAGTCACCTAGTGCAG”, the binding signal was 4160 fluorescence intensity (a.u.).
In the case of “AGAGAGGGAGTGATGACGTGGCATGTTGACATGTGGGGCCCGGAGTCACCTAGTGCAG”, the binding signal is 19700 fluorescence intensity (a.u.).
The figure for “TGCGTGTGGAAAGTAAACTAAGGAACTCAGACTAAGAGGGCGGAGTCACCTAGTGCAG” is 3150 fluorescence intensity (a.u.); for “TTTCTTAATACACAGTTGTACTTGATGAAACCTTAGGACGCGGAGTCACCTAGTGCAG” it is 6130 fluorescence intensity (a.u.); for “CAGCGCCACCGCTCAGCACGTCACCTGATTAGGCTTTCAACGGAGTCACCTAGTGCAG” it is 8100 fluorescence intensity (a.u.).
As to “CTCCGCCTCATTATAAGTACAATCATAGGTTTTCACGTCACGGAGTCACCTAGTGCAG”, the binding signal is 3210 fluorescence intensity (a.u.).
Consider “TTTCTTTTCAGACGATGACGTCACACCGTTCTTCATGTATCGGAGTCACCTAGTGCAG”, for which the binding signal is 12300 fluorescence intensity (a.u.).
For “CCGTGATTAGAAGTAGTACTAACGTGACGTATATATATCCCGGAGTCACCTAGTGCAG” the value was 5900 fluorescence intensity (a.u.).
For “GAGTGGGGAGAGAGTCAAGAGAGGGGCGTGTAGCACACGTCGGAGTCACCTAGTGCAG” the value was 4900 fluorescence intensity (a.u.).
For “CTGCCCGACTACCGCGTGCTCAATCGCCGCGGTGGACCACCGGAGTCACCTAGTGCAG”, the binding signal is 3210 fluorescence intensity (a.u.).
Regarding “TGAAGTTAGTGGGATATTTAGGCCACGTGTCCTGACAGCACGGAGTCACCTAGTGCAG”, the binding signal is 13300 fluorescence intensity (a.u.).
On to “TGCGCGGCGGCCGTCCGTCGATCATGATGAGGAGCTCCATCGGAGTCACCTAGTGCAG”, for which the binding signal is 21900 fluorescence intensity (a.u.).
For “TAACATTGATTGTTATGTCACTTGTCTGTGGATCAACTCTCGGAGTCACCTAGTGCAG” the value was 3930 fluorescence intensity (a.u.).
